Measurements reported in patent US12612394B2, “Herbicidal malonamides” (BASF SE, priority 2020, dated 2026).
Some entries share one result that the patent states for a list of compounds. Some compounds share one range, which may span the group rather than tell each member.

Columns and labels:
[1] = tested on: AMARE; experiment: greenhouse experiment, post-emergence treatment; assay type: in vivo, Amaranthus retroflexus; details: application rate 0.250 kg/ha, post-emergence method
[2] = tested on: ABUTH; experiment: greenhouse experiment, pre-emergence treatment; assay type: in vivo, Abutilon theophrasti; details: application rate 0.250 kg/ha, pre-emergence method
Description: (§1) The culture containers used were plastic flowerpots containing loamy sand with approximately 3.0% of humus as the substrate. The seeds of the test plants were sown separately for each species.
(§2) For the pre-emergence treatment, the active ingredients, which had been suspended or emulsified in water, were applied directly after sowing by means of finely distributing nozzles. The containers were irrigated gently to promote germination and growth and subsequently covered with transparent plastic hoods until the test plants had rooted. This cover caused uniform germination of the test plants, unless this had been impaired by the active ingredients. For the post-emergence treatment, the test plants were first grown to a height of 3 to 15 cm, depending on the plant habit, and only then treated with the active ingredients which had been suspended or emulsified in water. For this purpose, the test plants were either sown directly and grown in the same containers, or they were first grown separately as seedlings and transplanted into the test containers a few days prior to treatment.
(§3) Depending on the species, the test plants were kept at 10-25° C. or 20-35° C., respectively. The test period extended over 2 to 4 weeks. During this time, the test plants were tended, and their response to the individual treatments was evaluated.
(§4) Evaluation was carried out using a scale from 0 to 100. 100 means no emergence of the test plants, or complete destruction of at least the aerial moieties, and 0 means no damage, or normal course of growth. A good herbicidal activity is given at values of 70 to 90 and a very good herbicidal activity is given at values of 90 to 100.
(§5) The test plants used in the greenhouse experiments were of the following species: […]

[3] = tested on: SETFA; experiment: greenhouse experiment, pre-emergence treatment; assay type: in vivo, Setaria faberi; details: application rate 0.250 kg/ha, pre-emergence method
[4] = tested on: AMARE; experiment: greenhouse experiment, pre-emergence treatment; assay type: in vivo, Amaranthus retroflexus; details: application rate 0.250 kg/ha, pre-emergence method
[5] = tested on: ECHCG; experiment: greenhouse experiment, post-emergence treatment; assay type: in vivo, Echinocloa crus-galli; details: application rate 0.250 kg/ha, post-emergence method
[6] = tested on: ABUTH; experiment: greenhouse experiment, post-emergence treatment; assay type: in vivo, Abutilon theophrasti; details: application rate 0.250 kg/ha, post-emergence method
[7] = tested on: ALOMY; experiment: greenhouse experiment, pre-emergence treatment; assay type: in vivo, Alopercurus myosuroides; details: application rate 0.250 kg/ha, pre-emergence method
Description: as §1, §2, §3, §4, §5

[8] = tested on: SETVI; experiment: greenhouse experiment, post-emergence treatment; assay type: in vivo, Setaria viridis; details: application rate 0.250 kg/ha, post-emergence method
Description: as §1, §2, §3, §4, §5

[9] = tested on: ECHCG; experiment: greenhouse experiment, pre-emergence treatment; assay type: in vivo, Echinocloa crus-galli; details: application rate 0.250 kg/ha, pre-emergence method
[10] = tested on: ALOMY; experiment: greenhouse experiment, post-emergence treatment; assay type: in vivo, Alopercurus myosuroides; details: application rate 0.250 kg/ha, post-emergence method
[11] = tested on: APESV; experiment: greenhouse experiment, pre-emergence treatment; assay type: in vivo, Apera spica-venti; details: application rate 0.250 kg/ha, pre-emergence method
[12] = tested on: AVEFA; experiment: greenhouse experiment, post-emergence treatment; assay type: in vivo, Avena fatua; details: application rate 0.250 kg/ha, post-emergence method

Row | Structure (SMILES) | herbicidal activity against AMARE [1] | herbicidal activity against ABUTH [2] | herbicidal activity against SETFA [3] | herbicidal activity against AMARE [4] | herbicidal activity against ECHCG [5] | herbicidal activity against ABUTH [6] | herbicidal activity against ALOMY [7] | herbicidal activity against SETVI [8] | herbicidal activity against ECHCG [9] | herbicidal activity against ALOMY [10] | herbicidal activity against APESV [11] | herbicidal activity against AVEFA [12]
1 | COC(C(=O)Nc1cc(Cl)cc(Cl)c1)C(=O)N[C@H]1C=C[C@@H](C(=O)OC2CCCC2)C1 (relative stereo) [I.176] | good (A good herbicidal activity is given at values of 70 to 90) | good (A good herbicidal activity is given at values of 70 to 90) | very good (a very good herbicidal activity is given at values of 90 to 100) | very good (a very good herbicidal activity is given at values of 90 to 100) | very good (a very good herbicidal activity is given at values of 90 to 100) | very good (a very good herbicidal activity is given at values of 90 to 100) | – | – | – | – | – | –
2 | COC(C(=O)Nc1cc(Cl)cc(Cl)c1)C(=O)N[C@H]1C=C[C@@H](C(=O)OCC2CC2)C1 (relative stereo) [I.180] | good (A good herbicidal activity is given at values of 70 to 90) | good (A good herbicidal activity is given at values of 70 to 90) | – | very good (a very good herbicidal activity is given at values of 90 to 100) | very good (a very good herbicidal activity is given at values of 90 to 100) | very good (a very good herbicidal activity is given at values of 90 to 100) | very good (a very good herbicidal activity is given at values of 90 to 100) | – | – | – | – | –
3 | C#CCOC(=O)[C@@H]1C=C[C@H](NC(=O)C(OC)C(=O)Nc2cc(Cl)cc(Cl)c2)C1 (relative stereo) [I.183] | very good (a very good herbicidal activity is given at values of 90 to 100) | – | – | very good (a very good herbicidal activity is given at values of 90 to 100) | – | very good (a very good herbicidal activity is given at values of 90 to 100) | very good (a very good herbicidal activity is given at values of 90 to 100) | very good (a very good herbicidal activity is given at values of 90 to 100) | very good (a very good herbicidal activity is given at values of 90 to 100) | – | – | –
4 | COC(=O)[C@@H]1C=C[C@H](NC(=O)C(OC)C(=O)Nc2cccc(OC(F)(F)F)c2)C1 (relative stereo) [I.198] | very good (a very good herbicidal activity is given at values of 90 to 100) | very good (a very good herbicidal activity is given at values of 90 to 100) | – | – | very good (a very good herbicidal activity is given at values of 90 to 100) | very good (a very good herbicidal activity is given at values of 90 to 100) | – | – | very good (a very good herbicidal activity is given at values of 90 to 100) | very good (a very good herbicidal activity is given at values of 90 to 100) | – | –
5 | COC(C(=O)Nc1cc(C)cc(F)c1)C(=O)NC1C=CC(C(=O)OC(C)C)C1 (centres unmarked) [I.166] | – | good (A good herbicidal activity is given at values of 70 to 90) | very good (a very good herbicidal activity is given at values of 90 to 100) | very good (a very good herbicidal activity is given at values of 90 to 100) | very good (a very good herbicidal activity is given at values of 90 to 100) | very good (a very good herbicidal activity is given at values of 90 to 100) | – | – | – | very good (a very good herbicidal activity is given at values of 90 to 100) | – | –
6 | COC(C(=O)Nc1cc(Cl)cc(Cl)c1)C(=O)NC1C=CC(C(=O)OC2CCC2)C1 (centres unmarked) [I.184] | very good (a very good herbicidal activity is given at values of 90 to 100) | good (A good herbicidal activity is given at values of 70 to 90) | very good (a very good herbicidal activity is given at values of 90 to 100) | very good (a very good herbicidal activity is given at values of 90 to 100) | very good (a very good herbicidal activity is given at values of 90 to 100) | very good (a very good herbicidal activity is given at values of 90 to 100) | – | – | – | – | – | –
7 | COC(=O)CC(C)NC(=O)C(OC)C(=O)Nc1cc(Cl)c(Cl)c(Cl)c1 (centres unmarked) [I.210] | – | very good (a very good herbicidal activity is given at values of 90 to 100) | – | very good (a very good herbicidal activity is given at values of 90 to 100) | – | good (A good herbicidal activity is given at values of 70 to 90) | – | very good (a very good herbicidal activity is given at values of 90 to 100) | – | very good (a very good herbicidal activity is given at values of 90 to 100) | very good (a very good herbicidal activity is given at values of 90 to 100) | –
8 | COC(=O)CC(C)NC(=O)C(F)(OC)C(=O)Nc1cc(Cl)cc(Cl)c1 (centres unmarked) [I.211] | – | – | very good (a very good herbicidal activity is given at values of 90 to 100) | – | – | – | very good (a very good herbicidal activity is given at values of 90 to 100) | very good (a very good herbicidal activity is given at values of 90 to 100) | – | very good (a very good herbicidal activity is given at values of 90 to 100) | – | very good (a very good herbicidal activity is given at values of 90 to 100)
